These are yes or no findings as the source states them, for the method shown. Some binding calls cover weakened binding; strength is not graded here. Tags and fused reporters may be left off the sequences shown.
T1: MinD from Pseudomonas aeruginosa, full-length, His6-tagged (Pseudomonas aeruginosa) (UniProt Q9HYZ6)
T1 sequence: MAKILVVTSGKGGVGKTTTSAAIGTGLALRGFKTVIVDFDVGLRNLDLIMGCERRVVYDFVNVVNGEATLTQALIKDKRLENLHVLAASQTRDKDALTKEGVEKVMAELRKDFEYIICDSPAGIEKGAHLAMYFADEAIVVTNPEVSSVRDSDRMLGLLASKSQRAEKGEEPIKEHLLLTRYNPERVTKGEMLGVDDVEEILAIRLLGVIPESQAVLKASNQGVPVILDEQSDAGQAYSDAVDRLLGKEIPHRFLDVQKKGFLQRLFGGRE


Experiments:
[1] = molecular target: T1, MinD from Pseudomonas aeruginosa, full-length, His6-tagged (Pseudomonas aeruginosa); assay: cryo-EM structure; unsupported MinCD filaments in solution; MinC and MinD each 0.5 mg/mL combined in equal proportion in 20 mM HEPES-Na, 100 mM potassium acetate, 5 mM magnesium acetate, pH 7.0; 1 mM ATP, 15 min at room temperature; helical reconstruction; both purified
[2] = molecular target: T1, MinD from Pseudomonas aeruginosa, full-length, His6-tagged (Pseudomonas aeruginosa); assay: negative-stain electron microscopy of filaments; ATP-polymerized assemblies of purified MinC and MinD, negatively stained; both purified
[3] = molecular target: T1, MinD from Pseudomonas aeruginosa, full-length, His6-tagged (Pseudomonas aeruginosa); assay: cryo-EM imaging with 2D classification of filaments on lipid nanotubes; MinCD mixture combined with lipid nanotubes (E. coli total lipid extract and galactosylceramide, 3:7) before the addition of ATP; polymerization buffer; both purified

binding [1] | binding [2] | binding [3] | Binder
binds |  |  | MinD from Pseudomonas aeruginosa, full-length, His6-tagged (protein, UniProt Q9HYZ6 1-271) MAKILVVTSGKGGVGKTTTSAAIGTGLALRGFKTVIVDFDVGLRNLDLIMGCERRVVYDFVNVVNGEATLTQALIKDKRLENLHVLAASQTRDKDALTKEGVEKVMAELRKDFEYIICDSPAGIEKGAHLAMYFADEAIVVTNPEVSSVRDSDRMLGLLASKSQRAEKGEEPIKEHLLLTRYNPERVTKGEMLGVDDVEEILAIRLLGVIPESQAVLKASNQGVPVILDEQSDAGQAYSDAVDRLLGKEIPHRFLDVQKKGFLQRLFGGRE
binds | binds | binds | MinC from Pseudomonas aeruginosa, full-length, His6-tagged (natural protein, UniProt Q9HYZ7 1-263, looked up, MinC (septum site-determining protein), Pseudomonas aeruginosa, residues 1-263, cloned into pET-15b; only residues 156-261 (MinC^C) are modelled in the cryo-EM map; the tag was not removed; also called MinC2 (dimer); source: E. coli C41(DE3), purified (HisTrap HP, dialysis); not shown: His6, N-terminal, kept) MSQADLLDQDPVFQLKGSMLAVTILELAHNDLARLERQLADKVAQAPNFFRDTPLVMALDKLPEGEGRLDLPALLEVCRRHGLRTLAIRAGREEDIAAAQALDLPVLPPSGARERPLDIKDSAPRKPAEEPSPSAGEARPEPAKAEEKPAEPVSRPTKVVKTPVRGGMQIYAAGGDLIVLAAVSPGAELLADGNIHVYGPMRGRALAGVKGDATARIFCQQLAAELVSIAGNYKVAEDLRRSPQWGKAVHVSLSGDVLNITRL

Source: article PMC6771821, “Cryo‐EM structure of the MinCD copolymeric filament from Pseudomonas aeruginosa at 3.1 Å resolution” (Febs Letters, 2019)
